Laboratory results from patent publication US10398676B2, “Use of alpha-hydroxy carbonyl compounds as reducing agents” (Morvus Technology Ltd, priority 2005, dated 2019).
Some entries share one result that the patent states for a list of compounds.

Key:
[1] = Reduction of tretazicar by α-hydroxycarbonyl compounds, HPLC initial rate (Example 8); assay type: physicochemical; settings: 10 mM test compound, 100 μM tretazicar, 0.1 M sodium bicarbonate buffer, pH 9 or pH 10, 37° C.
Procedure: The assay was started by addition of 100 μL of 100 mM test compound (compound of formula I) in water to a mixture of tretazicar (100 μM) in 0.1 M sodium bicarbonate buffer, pH 9 or pH 10, to give a final volume of 1 mL. The mixture was incubated at 37° C. and aliquots (10 μL) were taken every 6 min and assayed immediately by HPLC [Partisil 10 SCX (4.2×150 mm) (Whatman, Maidstone, Kent, U.K.] eluted isocratically with 0.13 M sodium phosphate (pH 5) at 1.5 ml/min). The concentration of tretazicar was determined in each sample by reference of the corresponding peak area with an external standard, quantified by absorbance at 325 nm. Initial rates were calculated by curve fitting (FigP, Biosoft, Cambridge, U.K.). Reduction products were identified by retention time relative to an authentic standard.

[2] = Reduction of NADP+ by α-hydroxycarbonyl compounds (Example 7); assay type: physicochemical; settings: 1 mM test compound, 200 μM NADP+, pH 10 (1 mM NaHCO3 buffer), over 2 minutes
Procedure: A 10 μL aliquot of test compound (at a concentration of 100 mM in water) is added to a 200 μM NADP^+ aqueous solution (approximately 990 μL), buffered to pH 10 (1 mM NaHCO3 buffer). The final concentration of the test compound in the assay solution was 1 mM. Reduction of NADP^+ was then monitored by measuring the increase, over the course of 2 minutes, of absorption at 350 nm on a spectrophotometer. Initial rates were recorded as the change in A350 per minute.

Row | Structure (SMILES) | rate of tretazicar reduction (no reducing activity detected) [1] | Rate of NADP+ reduction [2]
1 | OCC1CCCO1 (racemic) [(±)-tetrahydrofurfuryl alcohol] | below 0.001 | below 0.001 change in A350 per minute
2 | O=CC=O [glyoxal] | below 0.001 | below 0.001 change in A350 per minute
3 | CC(=O)C(Cl)Cl [dichloroacetone] | below 0.001 | 
4 | O=C(Cl)C(Cl)Cl [dichloroacetyl chloride] | below 0.001 | 
5 | CC(=O)CCO [4-hydroxy-2-butanone] | below 0.001 | 
